Measurements: patent publication US20240199757A1
Results are given in words; binding and its absence hold for the method and conditions named. A result given as binding can be weak or reduced; the word gives no strength.

Target: NT5E dimer (cryo-EM complex with Fab32)
Assay: cryo-EM structure of the complex

binding: binds
B1: 1789 AM32 Fab (Fab, V domains shown)
VH: EVQLVESGGGLVQPGGSLRLSCAASGFNVSYSSIHWVRQAPGKGLEWVARIRGNEGDTYYADSVKGRFTISADTSKNTAYLQMNSLRAEDTAVYYCARNYWGWYPFYYFAFDYWGQGTLVTV
VL: DIQMTQSPSSLSASVGDRVTITCRASQSVSSAVAWYQQKPGKAPKLLIYSASSLYSGVPSRFSGSRSGTDFTLTISSLQPEDFATYYCQQGWDYPITFGQGTKVEIKR
